# Values from PubChem BioAssay AID493246 (Drosophila RNAi Screening Center, 2011)
# Test: 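Identify essential fly genes by loss of cell viability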 (primary screen)
# Cells: Drosophila Kc and S2R+ cells
# Knock-down reagent: long dsRNA against Drosophila genes
# Measured: 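Raw, unnormalised count of remaining cells in each well; per-plate z-scores of cell number underlie the calls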
# Direction: Kc cell number and S2R+ cell number: higher = more cells remaining
# Call rule: 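Active when the per-plate z-score of cell number is 3 or more in the direction of fewer cells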
# The screen tested about 21,000 reagents; shown is a random part of those with a known target gene and a result. Over the whole deposit, 429 (2%) got an active call. 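Values are raw and not normalised between plates; calls rest on per-plate z-scores that were not deposited.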 Names joined by + are all predicted targets of the reagent. Not stated in the record: the amount of reagent, the time to read-out.
The first 3 entries, to show the layout:
target,DRSC id,"Kc cell number, rep 1","Kc cell number, rep 2","S2R+ cell number, rep 1","S2R+ cell number, rep 2",outcome
KCNQ,DRSC06121,1.60e6,1.65e6,1.22e6,1.28e6,inactive
KCNQ,DRSC06230,1.52e6,1.68e6,1.25e6,1.32e6,inactive
CG13367,DRSC18485,1.68e6,1.65e6,9.76e5,1.11e6,inactive

Results, from the start:
target,DRSC id,"Kc cell number, rep 1","Kc cell number, rep 2","S2R+ cell number, rep 1","S2R+ cell number, rep 2",outcome
KCNQ,DRSC06121,1.60e6,1.65e6,1.22e6,1.28e6,inactive
KCNQ,DRSC06230,1.52e6,1.68e6,1.25e6,1.32e6,inactive
CG13367,DRSC18485,1.68e6,1.65e6,9.76e5,1.11e6,inactive
CG13367,DRSC18486,1.74e6,1.82e6,9.76e5,1.20e6,inactive
Ncoa6,DRSC02353,2.06e5,4.22e5,2.02e5,2.68e5,active
BBS8,DRSC00360,1.50e6,1.53e6,1.01e6,1.20e6,inactive
dgt6,DRSC14424,5.31e5,,6.79e5,,inactive
ND-20,DRSC20164,6.08e5,,7.81e5,,inactive
CG4882,DRSC04495,1.46e6,1.53e6,1.21e6,1.38e6,inactive
CG15643,DRSC19679,1.44e6,1.49e6,1.05e6,1.14e6,inactive
RhoGEF4,DRSC11011,1.37e6,1.44e6,1.21e6,1.16e6,inactive
OtopLb,DRSC00594,1.26e6,1.24e6,8.34e5,1.01e6,inactive
Pask,DRSC04337,1.31e6,1.35e6,1.14e6,1.13e6,inactive
ND-23,DRSC15526,1.54e6,1.63e6,9.24e5,1.03e6,inactive
CG15483,DRSC02493,1.57e6,1.65e6,1.23e6,1.38e6,inactive
CG34429,DRSC10120,1.26e6,1.40e6,1.39e6,1.52e6,inactive
Rab5,DRSC00777,1.24e6,1.34e6,9.48e5,9.59e5,inactive
Not1,DRSC06787,1.66e6,1.74e6,1.08e6,1.28e6,inactive
Not1,DRSC06794,1.17e6,1.31e6,7.68e5,7.89e5,inactive
Jhbp14,DRSC01988,1.69e6,1.74e6,1.38e6,1.58e6,inactive
CG2533,DRSC19855,1.69e6,1.79e6,1.09e6,1.21e6,inactive
Cpr49Ab,DRSC05341,1.52e6,1.54e6,1.01e6,1.12e6,inactive
CG13392,DRSC02262,1.52e6,1.60e6,1.24e6,1.36e6,inactive
vret,DRSC15640,1.46e6,1.52e6,1.20e6,1.28e6,inactive
CG13676,DRSC10035,1.74e6,1.66e6,9.69e5,1.10e6,inactive
DIP-delta,DRSC10214,1.30e6,1.30e6,1.18e6,1.17e6,inactive
DIP-delta,DRSC10450,1.25e6,1.38e6,1.22e6,1.22e6,inactive
CG16749,DRSC15146,1.68e6,1.63e6,1.29e6,1.44e6,inactive
pasi2,DRSC16380,1.76e6,1.76e6,1.27e6,1.47e6,inactive
Sec15,DRSC16179,1.54e6,1.74e6,1.06e6,1.13e6,inactive
CG4854,DRSC15663,1.47e6,1.41e6,1.13e6,1.20e6,inactive
CG13998,DRSC02330,1.79e6,1.75e6,1.27e6,1.39e6,inactive
mib1,DRSC10550,1.25e6,1.43e6,1.37e6,1.49e6,inactive
CG31921,DRSC00013,1.54e6,1.49e6,1.01e6,1.14e6,inactive
Eig71Eb,DRSC11149,1.37e6,1.56e6,1.29e6,1.39e6,inactive
CG13566,DRSC04203,1.68e6,1.69e6,1.40e6,1.39e6,inactive
CG10863,DRSC08145,1.43e6,1.50e6,1.19e6,1.17e6,inactive
CG12661,DRSC17864,1.59e6,1.55e6,1.09e6,1.24e6,inactive
CG42561,DRSC05676,5.72e5,,7.69e5,,inactive
CG3348,DRSC15480,1.51e6,1.58e6,1.06e6,1.20e6,inactive
CG13056,DRSC09937,1.38e6,1.52e6,1.15e6,1.34e6,inactive
CR30374,DRSC05080,1.64e6,1.78e6,1.03e6,1.15e6,inactive
CG8543,DRSC10990,1.27e6,1.31e6,1.16e6,1.16e6,inactive
Obp19d,DRSC20569,1.53e6,1.42e6,1.04e6,1.18e6,inactive
CG2765,DRSC04315,1.26e6,1.28e6,1.12e6,1.01e6,inactive
CG4612,DRSC04478,1.30e6,1.36e6,1.02e6,1.11e6,inactive
CG14515,DRSC14867,1.44e6,1.47e6,1.01e6,1.16e6,inactive
T3dh + pgc,DRSC04659,1.28e6,1.36e6,1.02e6,1.03e6,inactive
CG6415,DRSC02954,1.10e6,1.09e6,9.51e5,8.26e5,inactive
CG13891,DRSC08361,1.23e6,1.26e6,1.06e6,1.28e6,inactive
HIPP1,DRSC11748,1.72e6,1.79e6,1.29e6,1.36e6,inactive
CG13154,DRSC06279,1.56e6,1.70e6,1.20e6,1.35e6,inactive
ppk7,DRSC03236,1.67e6,1.63e6,1.08e6,1.31e6,inactive
CG3117,DRSC00568,1.57e6,1.57e6,1.14e6,1.17e6,inactive
jdp,DRSC16975,6.03e5,,8.80e5,,inactive
CG14569,DRSC11730,1.45e6,1.57e6,1.39e6,1.50e6,inactive
trol,DRSC17714,1.09e6,1.40e6,1.03e6,1.06e6,inactive
trol,DRSC17718,1.38e6,1.82e6,1.10e6,1.17e6,inactive
trol,DRSC18613,1.44e6,1.43e6,9.89e5,1.08e6,inactive
trol,DRSC18814,1.53e6,1.50e6,1.03e6,1.12e6,inactive
